Experimental data: the supplement of paper PMC10849652
This is one part of the list. Residues, ends and D or L forms follow the SMILES beside them. *: point of attachment. Cbz = O=C(OCc1ccccc1)*

Amino acid sequences for entries named in this document (tags omitted). A change or cut given only in a name is not applied to a line headed by its entry.
UniProt Q96KA5: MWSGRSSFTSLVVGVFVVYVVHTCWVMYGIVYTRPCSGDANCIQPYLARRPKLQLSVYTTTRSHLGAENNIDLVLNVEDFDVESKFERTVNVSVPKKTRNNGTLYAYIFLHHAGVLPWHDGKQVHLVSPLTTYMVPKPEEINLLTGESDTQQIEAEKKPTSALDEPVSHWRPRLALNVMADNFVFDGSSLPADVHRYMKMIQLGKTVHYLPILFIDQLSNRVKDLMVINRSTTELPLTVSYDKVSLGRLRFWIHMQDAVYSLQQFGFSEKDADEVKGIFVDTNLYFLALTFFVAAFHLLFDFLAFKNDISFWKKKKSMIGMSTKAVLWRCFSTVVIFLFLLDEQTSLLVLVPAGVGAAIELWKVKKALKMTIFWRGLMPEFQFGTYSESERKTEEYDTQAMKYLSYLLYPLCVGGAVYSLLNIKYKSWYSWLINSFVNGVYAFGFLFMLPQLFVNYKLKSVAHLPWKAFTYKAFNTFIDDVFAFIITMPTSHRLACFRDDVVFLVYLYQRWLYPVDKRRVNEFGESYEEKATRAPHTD
UniProt P38432, whole entry, looked up: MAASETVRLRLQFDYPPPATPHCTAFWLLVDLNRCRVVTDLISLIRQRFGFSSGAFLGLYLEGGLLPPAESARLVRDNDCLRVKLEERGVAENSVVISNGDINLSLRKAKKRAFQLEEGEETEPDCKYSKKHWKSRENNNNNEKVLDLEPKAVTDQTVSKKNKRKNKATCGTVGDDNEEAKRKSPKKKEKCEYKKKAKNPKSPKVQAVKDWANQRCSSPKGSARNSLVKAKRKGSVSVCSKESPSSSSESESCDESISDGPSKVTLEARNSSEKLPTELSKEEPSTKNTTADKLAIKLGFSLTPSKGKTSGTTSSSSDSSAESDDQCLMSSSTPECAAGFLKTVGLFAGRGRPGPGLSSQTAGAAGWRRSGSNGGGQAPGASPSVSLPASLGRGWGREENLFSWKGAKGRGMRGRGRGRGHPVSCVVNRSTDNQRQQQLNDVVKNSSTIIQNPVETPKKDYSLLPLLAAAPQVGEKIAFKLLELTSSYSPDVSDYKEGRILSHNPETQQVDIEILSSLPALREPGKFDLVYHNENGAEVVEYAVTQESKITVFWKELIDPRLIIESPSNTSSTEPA
UniProt P09496: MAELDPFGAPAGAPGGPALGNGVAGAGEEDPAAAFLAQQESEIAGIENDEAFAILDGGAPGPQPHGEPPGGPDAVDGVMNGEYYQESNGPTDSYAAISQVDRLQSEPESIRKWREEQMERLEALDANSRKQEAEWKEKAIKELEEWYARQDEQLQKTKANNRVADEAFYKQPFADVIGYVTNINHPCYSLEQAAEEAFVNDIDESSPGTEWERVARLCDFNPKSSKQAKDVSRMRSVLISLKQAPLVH
UniProt P12277: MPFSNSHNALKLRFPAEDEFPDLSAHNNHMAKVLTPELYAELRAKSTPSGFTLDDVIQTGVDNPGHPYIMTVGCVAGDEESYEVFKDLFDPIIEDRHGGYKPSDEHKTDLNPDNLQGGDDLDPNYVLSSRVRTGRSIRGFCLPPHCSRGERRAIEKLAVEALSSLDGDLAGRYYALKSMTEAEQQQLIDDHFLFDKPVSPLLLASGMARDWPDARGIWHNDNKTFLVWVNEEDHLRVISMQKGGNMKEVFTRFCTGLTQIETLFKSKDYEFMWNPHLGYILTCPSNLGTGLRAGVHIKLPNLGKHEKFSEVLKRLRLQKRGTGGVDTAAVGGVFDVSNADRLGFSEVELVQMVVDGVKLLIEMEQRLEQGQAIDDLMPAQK
UniProt P54105: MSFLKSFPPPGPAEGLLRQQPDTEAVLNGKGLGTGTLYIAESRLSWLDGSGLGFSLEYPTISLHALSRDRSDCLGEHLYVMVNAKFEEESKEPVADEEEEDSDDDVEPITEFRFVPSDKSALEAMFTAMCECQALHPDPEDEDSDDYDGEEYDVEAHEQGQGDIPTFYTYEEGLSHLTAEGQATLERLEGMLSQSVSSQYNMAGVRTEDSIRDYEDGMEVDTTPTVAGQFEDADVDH
UniProt O96005: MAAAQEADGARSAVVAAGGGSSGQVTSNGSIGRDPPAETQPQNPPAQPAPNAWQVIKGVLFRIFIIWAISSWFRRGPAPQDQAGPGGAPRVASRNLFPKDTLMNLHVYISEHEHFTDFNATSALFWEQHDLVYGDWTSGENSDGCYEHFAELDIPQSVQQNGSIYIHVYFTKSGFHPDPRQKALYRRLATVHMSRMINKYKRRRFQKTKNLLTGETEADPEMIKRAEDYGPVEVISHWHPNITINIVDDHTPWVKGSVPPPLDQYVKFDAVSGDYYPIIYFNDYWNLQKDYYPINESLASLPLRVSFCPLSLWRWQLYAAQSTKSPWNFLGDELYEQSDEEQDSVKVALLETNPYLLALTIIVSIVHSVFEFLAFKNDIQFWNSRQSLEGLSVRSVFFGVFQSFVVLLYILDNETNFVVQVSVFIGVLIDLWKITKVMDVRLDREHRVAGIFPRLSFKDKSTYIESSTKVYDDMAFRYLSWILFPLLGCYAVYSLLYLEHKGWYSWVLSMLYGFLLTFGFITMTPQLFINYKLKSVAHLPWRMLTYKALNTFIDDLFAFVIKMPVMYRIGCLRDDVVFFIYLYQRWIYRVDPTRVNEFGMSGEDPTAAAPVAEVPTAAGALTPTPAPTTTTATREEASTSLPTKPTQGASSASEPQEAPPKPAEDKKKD
UniProt Q7Z460: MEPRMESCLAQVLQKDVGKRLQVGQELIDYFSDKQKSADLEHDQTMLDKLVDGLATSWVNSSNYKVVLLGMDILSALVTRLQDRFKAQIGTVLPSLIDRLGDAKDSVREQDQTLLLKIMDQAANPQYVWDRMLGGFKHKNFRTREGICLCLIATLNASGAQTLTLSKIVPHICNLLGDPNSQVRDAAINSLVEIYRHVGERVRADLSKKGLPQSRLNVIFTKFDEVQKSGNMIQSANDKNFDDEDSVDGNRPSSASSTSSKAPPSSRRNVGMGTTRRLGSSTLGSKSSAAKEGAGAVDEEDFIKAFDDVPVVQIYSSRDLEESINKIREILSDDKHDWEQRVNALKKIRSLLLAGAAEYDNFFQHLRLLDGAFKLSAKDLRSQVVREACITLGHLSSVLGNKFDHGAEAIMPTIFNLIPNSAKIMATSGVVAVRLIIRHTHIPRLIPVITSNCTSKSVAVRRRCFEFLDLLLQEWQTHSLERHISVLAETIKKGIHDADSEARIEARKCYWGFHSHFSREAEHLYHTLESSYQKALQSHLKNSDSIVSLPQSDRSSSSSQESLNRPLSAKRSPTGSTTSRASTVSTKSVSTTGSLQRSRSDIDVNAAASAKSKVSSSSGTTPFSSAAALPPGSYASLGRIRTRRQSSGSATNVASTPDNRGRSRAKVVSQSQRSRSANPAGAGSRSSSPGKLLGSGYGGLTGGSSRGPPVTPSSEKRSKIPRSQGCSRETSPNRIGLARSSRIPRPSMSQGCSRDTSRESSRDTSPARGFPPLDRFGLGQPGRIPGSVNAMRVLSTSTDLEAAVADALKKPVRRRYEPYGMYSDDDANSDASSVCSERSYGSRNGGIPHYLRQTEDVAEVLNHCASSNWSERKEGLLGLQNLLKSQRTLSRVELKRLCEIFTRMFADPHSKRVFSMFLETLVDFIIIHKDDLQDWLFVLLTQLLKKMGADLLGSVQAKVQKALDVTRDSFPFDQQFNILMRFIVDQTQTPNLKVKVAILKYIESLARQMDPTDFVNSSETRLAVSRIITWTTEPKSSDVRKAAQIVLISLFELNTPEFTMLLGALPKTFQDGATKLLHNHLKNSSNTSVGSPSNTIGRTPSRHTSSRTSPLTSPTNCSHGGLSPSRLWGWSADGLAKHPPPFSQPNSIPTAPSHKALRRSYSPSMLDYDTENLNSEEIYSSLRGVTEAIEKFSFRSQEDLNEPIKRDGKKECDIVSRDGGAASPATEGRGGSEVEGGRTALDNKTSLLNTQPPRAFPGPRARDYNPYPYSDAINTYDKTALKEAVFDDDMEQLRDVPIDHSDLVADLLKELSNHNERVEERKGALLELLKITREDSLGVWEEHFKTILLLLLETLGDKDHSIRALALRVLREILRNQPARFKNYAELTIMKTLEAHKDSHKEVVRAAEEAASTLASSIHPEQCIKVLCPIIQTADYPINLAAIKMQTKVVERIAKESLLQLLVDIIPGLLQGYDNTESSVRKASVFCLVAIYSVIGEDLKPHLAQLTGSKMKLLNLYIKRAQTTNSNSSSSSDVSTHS
UniProt P51790: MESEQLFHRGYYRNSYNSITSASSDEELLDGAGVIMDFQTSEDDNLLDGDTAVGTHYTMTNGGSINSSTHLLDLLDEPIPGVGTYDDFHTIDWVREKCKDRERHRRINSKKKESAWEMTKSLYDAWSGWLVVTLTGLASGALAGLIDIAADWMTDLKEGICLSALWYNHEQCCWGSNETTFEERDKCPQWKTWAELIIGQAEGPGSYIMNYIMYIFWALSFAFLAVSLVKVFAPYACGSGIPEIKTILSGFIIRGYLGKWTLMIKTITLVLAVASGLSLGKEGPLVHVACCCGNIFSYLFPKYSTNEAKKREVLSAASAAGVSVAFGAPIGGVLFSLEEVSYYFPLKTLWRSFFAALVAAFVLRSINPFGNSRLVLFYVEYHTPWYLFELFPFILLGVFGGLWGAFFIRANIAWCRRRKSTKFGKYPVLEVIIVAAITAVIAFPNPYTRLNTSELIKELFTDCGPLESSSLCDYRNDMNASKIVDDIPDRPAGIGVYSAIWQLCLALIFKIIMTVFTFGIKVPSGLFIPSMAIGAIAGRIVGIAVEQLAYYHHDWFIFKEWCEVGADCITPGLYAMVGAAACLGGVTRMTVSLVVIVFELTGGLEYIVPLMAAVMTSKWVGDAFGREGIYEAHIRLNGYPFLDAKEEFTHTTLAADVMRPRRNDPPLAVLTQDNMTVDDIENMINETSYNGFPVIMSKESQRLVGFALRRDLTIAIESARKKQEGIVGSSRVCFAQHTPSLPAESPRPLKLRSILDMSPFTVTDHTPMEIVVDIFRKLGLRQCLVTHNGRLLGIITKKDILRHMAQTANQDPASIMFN
UniProt O75153: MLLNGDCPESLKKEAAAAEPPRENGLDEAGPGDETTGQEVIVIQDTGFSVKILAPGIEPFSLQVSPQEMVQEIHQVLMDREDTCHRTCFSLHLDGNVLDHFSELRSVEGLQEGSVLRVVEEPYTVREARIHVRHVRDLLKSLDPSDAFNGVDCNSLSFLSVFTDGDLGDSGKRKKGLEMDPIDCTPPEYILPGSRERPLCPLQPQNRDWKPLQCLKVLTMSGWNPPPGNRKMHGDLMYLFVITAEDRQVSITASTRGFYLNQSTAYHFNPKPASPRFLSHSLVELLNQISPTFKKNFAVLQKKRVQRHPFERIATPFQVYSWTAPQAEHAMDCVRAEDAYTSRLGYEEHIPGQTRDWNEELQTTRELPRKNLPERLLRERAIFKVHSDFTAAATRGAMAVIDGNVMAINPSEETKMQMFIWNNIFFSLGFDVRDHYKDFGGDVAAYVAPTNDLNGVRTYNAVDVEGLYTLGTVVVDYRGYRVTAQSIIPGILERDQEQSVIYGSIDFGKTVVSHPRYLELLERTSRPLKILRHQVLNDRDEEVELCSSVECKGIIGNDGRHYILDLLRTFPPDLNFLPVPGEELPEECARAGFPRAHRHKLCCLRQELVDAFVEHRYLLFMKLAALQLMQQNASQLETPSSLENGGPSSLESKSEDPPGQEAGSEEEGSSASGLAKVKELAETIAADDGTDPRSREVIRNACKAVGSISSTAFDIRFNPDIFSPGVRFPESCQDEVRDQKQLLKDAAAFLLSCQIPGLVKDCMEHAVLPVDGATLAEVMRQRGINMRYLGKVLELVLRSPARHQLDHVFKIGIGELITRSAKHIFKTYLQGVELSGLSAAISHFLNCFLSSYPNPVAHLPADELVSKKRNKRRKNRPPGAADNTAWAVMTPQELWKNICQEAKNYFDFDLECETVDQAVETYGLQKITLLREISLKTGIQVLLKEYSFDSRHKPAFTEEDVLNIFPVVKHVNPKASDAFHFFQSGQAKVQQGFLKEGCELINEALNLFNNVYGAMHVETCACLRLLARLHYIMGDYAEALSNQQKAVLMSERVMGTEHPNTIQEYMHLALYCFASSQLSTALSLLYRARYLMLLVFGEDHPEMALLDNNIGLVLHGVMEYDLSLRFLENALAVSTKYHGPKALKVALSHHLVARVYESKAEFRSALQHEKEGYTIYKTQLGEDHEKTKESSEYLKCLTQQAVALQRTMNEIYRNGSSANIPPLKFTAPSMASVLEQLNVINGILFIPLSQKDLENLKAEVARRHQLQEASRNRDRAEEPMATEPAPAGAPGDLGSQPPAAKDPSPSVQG
UniProt Q16740, whole entry, looked up: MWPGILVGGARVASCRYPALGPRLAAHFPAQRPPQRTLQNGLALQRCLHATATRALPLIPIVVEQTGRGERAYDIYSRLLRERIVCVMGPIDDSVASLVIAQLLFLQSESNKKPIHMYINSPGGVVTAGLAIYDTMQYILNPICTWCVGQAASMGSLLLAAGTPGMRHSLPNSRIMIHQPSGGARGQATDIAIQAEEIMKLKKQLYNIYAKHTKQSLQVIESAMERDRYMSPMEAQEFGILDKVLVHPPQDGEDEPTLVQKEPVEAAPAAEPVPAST

Assays:
Experiment in all cases: log2 fold change, soluble protein after heating vs DMSO (PISA); higher = thermal stabilisation; K562 cells, 10 uM, 30 min; active = over 0.2 and 3.5 SD of the protein, either way, in both replicates (recomputed)
[1] = compound: C#Cc1cccc(Nc2ncnc3cc(OCCOC)c(OCCOC)cc23)c1 [erlotinib]
In short: (§1)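 Soluble protein was defined as the supernatant after 21,000xg for 90 min. It came from K562 cells at 2×10^6 cells/mL given 10 μM compound for 30 min, heated in aliquots for 3 min across 48°C-58°C, pooled, and extracted in PBS with 0.5% NP-40 at 4°C, and was quantified by TMTpro 16plex LC-MS/MS with equalised channel sums. Thermal stability against control samples, from duplicates, is reported as log2 fold change.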

[2] = compound: C/C(=N\NC(=O)C1=CC(=CC=C1)S(=O)(=O)N2CCOCC2)/C3=C(C=CC(=C3)Cl)O
In short: as §1

[3] = compound: C1=CC(=C(C=C1Cl)C2=NC3=NC=CN=C3C(=N2)NC4=CC=NC=C4)F
In short: as §1

[4] = compound: C1=CC(=CC=C1C2=NC3=C(N2)C=C(C=C3)C(=O)N)OC4=CC=C(C=C4)Cl
In short: as §1

[5] = compound: C1=CC2=C(C=CC(=C2)/C=C\3/C(=O)NC(=NCC4=CC=CS4)S3)N=C1
In short: as §1

[6] = compound: C1=CC2=NC=CN=C2C=C1/C=C/3\C(=O)NC(=O)S3
In short: as §1

[7] = compound: C1=CC=C(C=C1)C2=NC(=C(N2)C3=CC=NC=C3)C4=CC(=C(C=C4)Cl)O
In short: as §1

[8] = compound: C1=CC=C2C(=C1)C3=NNC4=CC=CC(=C43)C2=O
In short: as §1

[9] = compound: C1CCN(C1)C(=O)NC2=CC=CC(=C2)NC3=NC=C(C(=N3)NCCC4=CN=CN4)Br
In short: as §1

[10] = compound: C1CN(CCC1(CC2=CC=C(C=C2)Cl)N)C3=NC=NC4=C3C=CN4
In short: as §1

[11] = compound: C1COCCN1CCN2C3=CC=CC=C3N=C2NC(=O)C4=CC(=CC=C4)[N+](=O)[O-] [IRAK-1-4 Inhibitor I]
In short: as §1

[12] = compound: CC(=O)c1cnc2ccc(-c3cc(Cl)c(O)c(Cl)c3)nc2c1N[C@H]1CC[C@H](CN(C)C)CC1
In short: as §1

[13] = compound: CC(C)(C)Cn1c(N)nc2ccc(-c3[nH]c(C(C)(C)C)nc3-c3ccc(F)cc3)nc21 [ralimetinib]
In short: as §1

[14] = compound: CC(C)(O)CC(=O)NCCn1ccc2ncnc(Nc3ccc(Oc4cccc(C(F)(F)F)c4)c(Cl)c3)c21
In short: as §1

[15] = compound: CC(C)C1=C2N=C(C=C(N2N=C1)NCC3=CC=CC=C3)NCCCCCCN
In short: as §1

[16] = compound: CC(C)C[C@@H](C=O)NC(=O)[C@H](CC(C)C)NC(=O)[C@H](CC(C)C)NC(=O)OCc1ccccc1
In short: as §1

[17] = compound: CC(C)N(C[C@H]1O[C@@H](n2cnc3c(N)ncnc32)[C@H](O)[C@@H]1O)[C@H]1C[C@@H](CCc2nc3cc(C(C)(C)C)ccc3[nH]2)C1 [pinometostat]
In short: as §1

[18] = compound: CC1=C(C2=C(C=C1)C(=O)C3=CC=CC=C3N2CCCN)C
In short: as §1

[19] = compound: C=CC(=O)N1CCC[C@@H](n2nc(-c3ccc(Oc4ccccc4)cc3)c3c(N)ncnc32)C1 [ibrutinib]
In short: as §1

[20] = compound: CC1=C(C(CC(=O)N1)C2=CC=C(C=C2)C(F)(F)F)C(=O)NC3=C(C=C4C(=C3)C=NN4)F
In short: as §1

Measured: log2 fold change

CLPTM1L (UniProt Q96KA5)
active: [15] -0.281
inactive: [1] 0.011 | [2] 0.04 | [3] -0.029 | [4] 0.063 | [5] 0.032 | [6] 0.018 | [7] -0.002 | [8] -0.037 | [9] -0.022 | [10] 0.017 | [11] 0.051 | [12] -0.033 | [13] -0.05 | [14] -0.069 | [16] 0.006 | [17] 0.023 | [18] 0.033

CLPX (UniProt O76031)
inactive: [1] -0.062 | [2] 0.056 | [3] 0.01 | [4] 0.004 | [5] -0.009 | [6] 0.036 | [7] -0.008 | [8] -0.034 | [9] -0.03 | [10] -0.003 | [11] 0.002 | [12] 0.006 | [13] -0.03 | [14] -0.02 | [15] 0.048 | [16] -0.055 | [17] -0.026 | [18] 0.012

COIL (UniProt P38432)
inactive: [1] -0.109 | [2] -0.021 | [3] 0.048 | [4] 0.134 | [5] 0.157 | [6] 0.071 | [7] -0.161 | [8] -0.05 | [9] 0.084 | [10] -0.263 | [19] -0.06 | [12] -0.111 | [13] -0.226 | [14] 0 | [15] -0.114 | [16] 0.201 | [20] -0.04 | [18] -0.041

CLPB isoform 2 (UniProt Q9H078)
inactive: [1] 0.009 | [2] 0.018 | [3] -0.013 | [4] -0.003 | [5] 0.045 | [6] 0.003 | [7] 0.105 | [8] 0.004 | [9] -0.023 | [10] -0.004 | [11] 0.011 | [12] -0.059 | [13] 0.04 | [14] -0.074 | [15] -0.116 | [16] 0.021 | [17] 0.012 | [20] -0.018 | [18] 0.076

CLTA isoform 2 (UniProt P09496)
inactive: [1] 0.03 | [2] -0.093 | [3] -0.056 | [4] -0.008 | [5] -0.058 | [6] 0.063 | [7] -0.017 | [8] -0.015 | [9] 0.081 | [10] 0.004 | [11] 0.045 | [12] 0.116 | [13] 0.027 | [14] 0 | [15] 0.055 | [16] 0.087 | [17] -0.005 | [20] 0.039 | [18] -0.097

CKB (UniProt P12277)
inactive: [1] 0.011 | [2] 0.045 | [3] 0.052 | [4] 0.035 | [5] 0.018 | [6] -0.038 | [7] 0.01 | [8] 0.065 | [9] 0.022 | [10] 0.027 | [11] 0.014 | [19] -0.024 | [12] -0.009 | [13] -0.01 | [14] -0.077 | [15] -0.045 | [16] 0.021 | [17] -0.02 | [18] 0.059

CLNS1A (UniProt P54105)
inactive: [1] 0.001 | [2] 0.035 | [3] 0.049 | [4] 0.019 | [5] -0.006 | [6] -0.023 | [7] -0.032 | [8] -0.009 | [9] 0.003 | [10] -0.013 | [11] -0.002 | [12] 0.021 | [13] -0.017 | [14] -0.04 | [15] 0.037 | [16] -0.002 | [17] -0.058 | [20] -0.019 | [18] -0.089

CLIC4 (UniProt Q9Y696)
inactive: [1] 0.021 | [2] 0.036 | [3] 0.049 | [4] -0.016 | [5] 0.03 | [6] 0.003 | [7] -0.009 | [8] 0 | [9] -0.007 | [10] -0.006 | [11] 0.03 | [12] 0 | [13] -0.075 | [14] 0 | [15] 0.027 | [16] 0.02 | [17] -0.038 | [20] -0.009 | [18] 0.026

CLUH, A0A494C0R8
inactive: [1] -0.008 | [2] -0.081 | [3] 0.253 | [4] -0.107 | [5] 0.127 | [6] 0.235 | [7] -0.081 | [8] 0.03 | [9] 0.07 | [10] 0.05 | [11] -0.016 | [13] -0.125 | [14] -0.231 | [15] -0.257 | [16] 0.199 | [17] -0.044 | [18] 0.046
active: [12] 0.508

CLPTM1 (UniProt O96005)
inactive: [1] -0.033 | [2] 0.076 | [3] -0.002 | [4] 0.004 | [5] -0.036 | [6] 0.045 | [7] -0.015 | [8] 0.016 | [9] 0.016 | [10] 0.005 | [11] 0.001 | [12] 0.054 | [13] -0.034 | [14] 0.022 | [15] -0.163 | [16] 0.041 | [17] 0.042 | [20] 0.038 | [18] 0.025

CLASP1 (UniProt Q7Z460)
inactive: [1] 0.046 | [2] 0.164 | [3] -0.033 | [4] -0.054 | [5] 0.075 | [6] -0.056 | [7] 0.03 | [8] 0.014 | [9] -0.048 | [10] -0.031 | [11] -0.101 | [12] -0.284 | [13] 0.083 | [14] -0.086 | [15] -0.193 | [16] 0.075 | [17] 0.106 | [20] 0.056 | [18] 0.05

CLCN7 (UniProt P51798)
inactive: [1] 0.079 | [2] 0.047 | [3] 0.075 | [4] -0.008 | [5] 0.023 | [6] 0.063 | [7] 0.076 | [8] -0.05 | [9] 0.016 | [10] 0.001 | [11] -0.01 | [12] -0.005 | [13] -0.055 | [14] -0.08 | [16] 0 | [17] -0.051 | [18] -0.092
active: [15] -0.91

CLCN3 (UniProt P51790)
inactive: [1] -0.024 | [2] 0.079 | [3] -0.053 | [4] -0.045 | [5] 0.023 | [6] 0.07 | [7] -0.01 | [8] -0.03 | [9] -0.032 | [10] 0.055 | [11] 0.014 | [12] -0.062 | [13] -0.076 | [14] 0.015 | [15] -0.05 | [16] -0.039 | [17] -0.031 | [18] -0.053

CLUH (UniProt O75153)
inactive: [1] 0.08 | [2] 0 | [3] 0.318 | [4] -0.042 | [5] 0.137 | [7] 0.03 | [8] 0.058 | [9] -0.043 | [10] -0.027 | [11] 0.107 | [13] 0.028 | [14] -0.048 | [15] -0.179 | [16] -0.009 | [17] 0.045 | [18] 0.095
active: [6] 0.324 | [12] 0.467

Four consecutive entries out of the list so far, for reference:
CLPTM1 (UniProt O96005)
inactive: [1] -0.033 | [2] 0.076 | [3] -0.002 | [4] 0.004 | [5] -0.036 | [6] 0.045 | [7] -0.015 | [8] 0.016 | [9] 0.016 | [10] 0.005 | [11] 0.001 | [12] 0.054 | [13] -0.034 | [14] 0.022 | [15] -0.163 | [16] 0.041 | [17] 0.042 | [20] 0.038 | [18] 0.025

CLASP1 (UniProt Q7Z460)
inactive: [1] 0.046 | [2] 0.164 | [3] -0.033 | [4] -0.054 | [5] 0.075 | [6] -0.056 | [7] 0.03 | [8] 0.014 | [9] -0.048 | [10] -0.031 | [11] -0.101 | [12] -0.284 | [13] 0.083 | [14] -0.086 | [15] -0.193 | [16] 0.075 | [17] 0.106 | [20] 0.056 | [18] 0.05

CLCN7 (UniProt P51798)
inactive: [1] 0.079 | [2] 0.047 | [3] 0.075 | [4] -0.008 | [5] 0.023 | [6] 0.063 | [7] 0.076 | [8] -0.05 | [9] 0.016 | [10] 0.001 | [11] -0.01 | [12] -0.005 | [13] -0.055 | [14] -0.08 | [16] 0 | [17] -0.051 | [18] -0.092
active: [15] -0.91

CLCN3 (UniProt P51790)
inactive: [1] -0.024 | [2] 0.079 | [3] -0.053 | [4] -0.045 | [5] 0.023 | [6] 0.07 | [7] -0.01 | [8] -0.03 | [9] -0.032 | [10] 0.055 | [11] 0.014 | [12] -0.062 | [13] -0.076 | [14] 0.015 | [15] -0.05 | [16] -0.039 | [17] -0.031 | [18] -0.053

(listing goes on)

CLIC1 (UniProt O00299)
inactive: [1] -0.018 | [2] 0.03 | [3] 0.038 | [4] -0.025 | [5] -0.022 | [6] -0.022 | [7] 0.02 | [8] 0.009 | [9] 0.017 | [10] 0.047 | [11] 0.044 | [12] -0.008 | [13] -0.047 | [14] 0.003 | [15] 0.016 | [16] -0.01 | [17] -0.032 | [20] 0.056 | [18] -0.037

CLCN3 isoform 2 (UniProt P51790)
inactive: [1] 0.008 | [2] 0.089 | [3] 0.059 | [4] 0.044 | [5] 0.024 | [6] -0.002 | [7] 0.025 | [8] -0.017 | [9] -0.012 | [10] 0.033 | [11] 0.005 | [12] -0.008 | [13] 0.026 | [14] -0.043 | [15] -0.049 | [16] -0.066 | [17] -0.043 | [18] 0.051

CLPP (UniProt Q16740)
inactive: [1] -0.025 | [2] 0.013 | [3] -0.069 | [4] 0.037 | [5] 0.042 | [6] 0.003 | [7] 0.023 | [8] 0.035 | [9] -0.028 | [10] 0.022 | [11] -0.023 | [12] 0.022 | [13] -0.012 | [14] 0.017 | [15] 0.097 | [16] -0.008 | [17] -0.094 | [18] 0.079
